In EP0779076A1 (priority 1994, dated 1996):

Test: general procedure: solution-phase peptide synthesis; isobutylchloroformate/N-methylmorpholine (mixed anhydride); dicyclohexylcarbodii
Conditions: coupling step

Compared with Boc-Y(Bn)[dOrn](Cbz)F[dA]-OH, BOC-Arg(NO2)-Tyr-D-Ala-Phe-Gly-oBzl is higher in step yield: 82.0% for the first, 87.2% for the second.

First: BOC-Tyr-(BOC)-D-Ala-Phe-Gly-oBzl
Second: BOC-Tyr(Bzl)-D-Orn(Z)-Phe-D-Glu(OBzl)2
The step yield of the first is lower: 83.4% for the first, 93.2% for the second.

In the case of Z3-Arg-Tyr(Bzl)-D-Orn(Z)-Phe-D-Ala-OH, the step yield is reported as 92.0%.

Same assay, conditions: late stage modification step

First: PEPTIDE1{R.Y.[dR].F.[dA]}$$$$V2.0
Second: TFA·H-Tyr(Bzl)-D-Orn(Z)-Phe-D-Ala-OH
The step yield of the first is lower: 76.9% for the first, 100% for the second.

Compared with PEPTIDE1{R.Y.[dOrn].F.[dA]}$$$$V2.0, PEPTIDE1{R.Y.[dA].F.G}$$$$V2.0 is higher in step yield: 80.8% for the first, 100% for the second.

First: H-Y[Orn]F[dE]-OH
Second: TFA·Tyr-D-Ala-Phe-Gly-oBzl
The step yield of the first is lower: 98.8% for the first, 100% for the second.

Some peptides are written in HELM: one residue between dots, names in brackets for other building blocks, links after the first $. Non-standard residues stand in square brackets, D forms with d. *: point of attachment. dOrn = NCCC[C@@H](N)C(=O)O; Orn = NCCC[C@H](N)C(=O)O; Cbz = O=C(OCc1ccccc1)*; Boc = CC(C)(C)OC(=O)*; Bn = c1ccc(C*)cc1
